## Screening data, single-dose tests

By UniProt entry, the sequences of proteins in these tests, tags left out. Residues count along the entry.
UniProt A4I591, 1-473: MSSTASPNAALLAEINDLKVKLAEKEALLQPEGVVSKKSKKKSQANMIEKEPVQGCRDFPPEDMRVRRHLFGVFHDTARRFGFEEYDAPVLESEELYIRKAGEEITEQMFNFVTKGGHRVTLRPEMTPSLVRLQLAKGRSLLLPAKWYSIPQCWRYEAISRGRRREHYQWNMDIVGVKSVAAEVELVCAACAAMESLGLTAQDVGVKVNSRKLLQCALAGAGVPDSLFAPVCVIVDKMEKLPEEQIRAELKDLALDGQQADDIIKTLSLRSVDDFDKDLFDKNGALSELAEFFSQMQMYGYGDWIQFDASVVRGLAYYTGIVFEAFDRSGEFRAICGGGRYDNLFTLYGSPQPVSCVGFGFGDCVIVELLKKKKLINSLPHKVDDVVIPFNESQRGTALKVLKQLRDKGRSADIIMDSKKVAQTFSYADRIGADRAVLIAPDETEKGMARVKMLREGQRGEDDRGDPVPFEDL
UniProt P9WPC5, whole entry: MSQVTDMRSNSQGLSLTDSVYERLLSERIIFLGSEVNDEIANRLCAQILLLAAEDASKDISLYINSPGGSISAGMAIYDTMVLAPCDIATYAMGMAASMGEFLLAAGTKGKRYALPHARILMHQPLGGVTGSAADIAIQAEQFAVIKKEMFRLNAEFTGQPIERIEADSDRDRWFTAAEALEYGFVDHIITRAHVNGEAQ
UniProt P9WPC3, whole entry partner: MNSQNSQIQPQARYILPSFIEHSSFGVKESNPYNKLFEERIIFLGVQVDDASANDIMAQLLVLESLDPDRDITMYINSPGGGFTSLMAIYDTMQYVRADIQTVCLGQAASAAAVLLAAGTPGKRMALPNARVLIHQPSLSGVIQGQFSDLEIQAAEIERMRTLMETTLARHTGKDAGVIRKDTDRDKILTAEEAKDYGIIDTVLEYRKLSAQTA
UniProt Q4DA54, 1-478: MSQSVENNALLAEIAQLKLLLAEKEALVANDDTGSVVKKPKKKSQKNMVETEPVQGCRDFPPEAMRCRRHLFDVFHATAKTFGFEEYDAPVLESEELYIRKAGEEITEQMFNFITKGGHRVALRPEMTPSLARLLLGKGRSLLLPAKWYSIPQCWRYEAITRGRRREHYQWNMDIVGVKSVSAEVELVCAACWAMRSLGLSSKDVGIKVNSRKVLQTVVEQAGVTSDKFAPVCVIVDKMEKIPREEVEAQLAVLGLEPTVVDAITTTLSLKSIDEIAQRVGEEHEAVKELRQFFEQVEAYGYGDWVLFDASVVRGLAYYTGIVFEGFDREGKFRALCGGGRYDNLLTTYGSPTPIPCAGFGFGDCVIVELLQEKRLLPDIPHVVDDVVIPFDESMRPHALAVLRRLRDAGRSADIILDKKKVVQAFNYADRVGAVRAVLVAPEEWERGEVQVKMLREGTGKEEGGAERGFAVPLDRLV

Toxoplasma: 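Assay of Toxoplasma gondii numbers, read through their beta-galactosidase reporter with a colour substrate. Compounds at 10 µM. The record gives no direction; the compounds picked for IC50 retests had high values, so higher reads as fewer parasites. Of about 67,000 compounds tested this way, about 260 (0.38%) reached 50% or more in at least one test.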
T. brucei: 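Whole-parasite assay of Trypanosoma brucei over 72 hours; the read-out is not stated. Tested at 30 µM. Higher reads as stronger inhibition (inferred: compounds with an IC50 in retests scored well above the rest). Values scatter widely below zero; nearly all retest evidence comes from the higher of the two concentrations used. Of about 64,000 compounds tested this way, about 940 (1.5%) reached 50% or more in at least one test.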
LiHisRS: 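Enzyme assay of histidyl-tRNA synthetase; the read-out is not stated. Target: Histidine-tRNA ligase, Leishmania infantum (UniProt A4I591). Tested at 30 µM. Higher reads as stronger inhibition (inferred: compounds with an IC50 in retests scored well above the rest). The assay is labelled LdHisRS but filed under L. infantum. About 69,000 compounds were tested under these conditions; 0.6% (about 410) showed 50% or more at least once.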
ClpP1P2: 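Protease assay of ClpP1P2, read by the AMC dye that it sets free. Target: ClpP1P2, Mycobacterium tuberculosis (UniProt P9WPC5 and UniProt P9WPC3). Tested at 50 µM. Direction is inferred from only a few compounds that gave an IC50; most scored high, so higher reads as stronger inhibition. Most other retested compounds had strongly negative values. About 69,000 compounds were tested under these conditions; 0.015% (about 10) showed 50% or more at least once.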
TcHisRS: 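Enzyme assay of histidyl-tRNA synthetase; the read-out is not stated. Target: Histidine-tRNA ligase, Trypanosoma cruzi CL Brener (UniProt Q4DA54). Concentration: 30 µM. Higher reads as stronger inhibition (inferred: compounds with an IC50 in retests scored well above the rest). About 69,000 compounds were tested under these conditions; 0.045% (about 31) showed 50% or more at least once.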

Results are given as percent effect.
How 0% and 100% were set is not recorded. Most values in the screen are low, and negative values occur.
The compounds are a random part of those screened.
A dash means the value is not listed here; it may have been measured.

compound	Toxoplasma	T. brucei	LiHisRS	ClpP1P2	TcHisRS
O=C(CCNc1ncccn1)NCCOc1ccc2c(c1)CCC2	-2.197	26.61	25.76	1.548	-1.515
Cc1ccc(C(=O)N2CCC(n3cc(CO)nn3)CC2)cn1	3.895	-95.72	-18.31	-3.513	-3.867
COc1ccc(C2CCCCCN2S(N)(=O)=O)cc1 (configuration not stated)	-8.6	-	0	2.925	1.754
Cc1ccc(C(=O)NCCCNS(C)(=O)=O)cc1C	20.35	-18.4	5.479	5.239	7
CSCCN(C)Cc1ccc(F)cc1C#N	-0.6952	-18.39	-0.8772	-0.8532	6.897
CC(C)OCCC(=O)NS(=O)(=O)N1CCOc2ccccc21	29.42	-4.9	19.1	7.054	9.845
Cc1cc(NC2CCc3nc(C)nn3C2)n2ncnc2n1 (configuration not stated)	-0.2429	-21.45	19.75	-2.515	5.521
Cc1nccn1[C@@H]1CC[C@@H](NC(=O)CCOc2ccccc2)[C@H]1O	-18.96	-13.2	8.054	-6.41	4.286
Cc1cc(S(=O)(=O)NC(C)(C)CN)c(F)cc1F	-	-	7.143	4.323	9.901
Cc1cnn(CC2CCCN2C(=O)c2cccc(F)c2F)c1 (configuration not stated)	7.379	-	17.09	-3.766	5.983
c1cnnc(N2CCCC2CNCc2noc(C3CC3)n2)c1 (configuration not stated)	5.319	-	20.35	-31.92	9.621
CCN1Cc2ccccc2CC2(CCN(CC3CCC3)CC2)C1=O	3.674	-16.97	0	-10.77	-3.333
Cc1ccc(CN2CCC3(C2)C(=O)N(CC2CC2)c2ccccc23)s1 (configuration not stated)	-	-	6.849	-66.58	3
NC(=O)c1cc2c(nc1CCOCc1ccccc1)CCC2	-0.3743	-5.529	13.99	-13.7	5.473
Cc1cc(=O)[nH]c(CCNC(=O)C(c2ccc(F)cc2)N(C)C)n1 (configuration not stated)	4.497	-26.64	5.714	7.897	1.653
Fc1ccc(CN2CCC3(CC2)CC(c2cccnc2)CO3)cc1 (configuration not stated)	-	-	8.333	-6.807	8.411
OCC1CCCCN1Cc1nc(Cc2ccccc2)no1 (configuration not stated)	3.155	10.79	14.91	-5.438	5.172
CCOc1ccnc(NCCc2nc(C)cc(=O)[nH]2)n1	13.58	-21.94	16.44	-4.901	-1.093
Cc1cnn(CCNCc2ccc(C#N)cc2)c1	-20.51	-	12.84	-20.39	4.373
CN(C)C(=O)N1CC[C@@H](c2ccc3ccccc3c2)[C@H](O)C1	-3.38	-189.3	14.04	3.389	1.093
CNC(=O)[C@@H](c1ccccc1F)N1CCC[C@H]1C(=O)NC1CCCC1	-	-	16.67	-11.5	5.473
Cc1nc(N2CCN(c3ccccc3)CC2)c2c(n1)c(C)nn2C	52.19	-26.33	12.07	4.837	3.478
CNC(=O)CN1CCOCC2(CCCN(Cc3ccc(F)cc3)C2)C1 (configuration not stated)	-	-	8.257	-2.799	5.288
Cc1ccc2c(c1)OCCCC2NCc1nccn1CC(C)C (configuration not stated)	-9.859	-30.65	2.564	5.962	-2.222
CN(C)c1nccc(C2CCCCN2Cc2cnn3cccnc23)n1 (configuration not stated)	-1.593	-8.286	1.429	-9.62	1.149
CC(C)Oc1cccc(C(O)CNC(=O)NCc2cccs2)c1 (configuration not stated)	18.76	-19.7	14.52	-17.49	-2.041
CC(=O)c1cc2ncc(C(=O)NC3CC3)cc2[nH]1	3.684	-14.93	21.78	-4.901	6.818
CC(C)CN1CCCC12CCN(c1nncs1)C2 (configuration not stated)	-	-	4.425	1.735	1.075
COc1ccc(-c2cc(C3(O)CCN(C)CC3)on2)cc1	11.24	-5.25	-2.151	0.07766	0.5181
CCOC(=O)NCc1nn(CCN2CCCC2)c(=O)c2ccccc12	7.365	-62.2	13.04	-8.74	10
Cn1cccc1C1CCCCCN1C(=O)c1ccc(NC2CC2)nc1 (configuration not stated)	33.07	-	20.18	-12.07	24.2
Cc1n[nH]c2c1C(c1ccc(Br)cc1)SCC(=O)N2 (configuration not stated)	-20.08	-20.07	11.96	-8.159	7.921

Some entries from above, unchanged:

* CNC(=O)[C@@H](c1ccccc1F)N1CCC[C@H]1C(=O)NC1CCCC1 : LiHisRS: 16.67%; ClpP1P2: -11.5%; TcHisRS: 5.473%
* CN(C)C(=O)N1CC[C@@H](c2ccc3ccccc3c2)[C@H](O)C1 : Toxoplasma: -3.38%; T. brucei: -189.3%; LiHisRS: 14.04%; ClpP1P2: 3.389%; TcHisRS: 1.093%

From ChEMBL document CHEMBL3988442, “University of Dundee, Small-Polar-MMV Screening Library” (2021).